Literature values as cited in US5840770A, “Method of killing tumor cells” (Hill Medical Corporation, priority 1997, dated 1998).
At least one compound was matched to its structure with a doubt left.

Tested on: neutrophils

CC(=O)OCC[N+](C)(C)C [Acetylcholine]
secretion of beta-glucuronidase and phagocytosis: stimulate the immunologic secretion of beta-glucuronidase and enhance phagocytosis in neutrophils
